PubChem BioAssay AID1159584 | Peter MacCallum Cancer Centre, 2016
Here is an unselected part of about 18,000 deposited reagents. The record does not give: the amount of reagent, the time to read-out.

Test: 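Genes that CDH1-null MCF10A cells selectively depend on to survive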 (primary screen)
System: human MCF10A breast epithelial cells, parental and CDH1-null
Knock-down reagent: siRNA against human genes
Measured: 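Cell viability by CellTiter-Glo ATP luminescence, each line scaled to the mean of mock wells across plates, then CDH1-null over parental ratio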
Direction: CDH1-null / parental viability ratio: higher = CDH1-null cells survive relatively better than parental; CDH1-null viability vs mock: higher = more viable CDH1-null cells; parental viability vs mock: higher = more viable parental cells

gene,CDH1-null / parental viability ratio,CDH1-null viability vs mock (fraction of mock),parental viability vs mock (fraction of mock)
CDC34 (GeneID 997),1.25,0.55,0.44
FKBP10 (GeneID 60681),1.21,0.41,0.34
IFT57 (GeneID 55081),1.05,0.84,0.8
SH3GL3 (GeneID 6457),0.64,0.54,0.84
ZNF775 (GeneID 285971),0.95,0.76,0.8
SLC31A2 (GeneID 1318),0.98,0.61,0.62
EEF1B2 (GeneID 1933),1.3,1,0.77
PTPRN (GeneID 5798),1.03,0.67,0.65
SNHG32 (GeneID 50854),1.02,0.94,0.92
MAGEA2 (GeneID 4101),0.7,0.42,0.6
AGPAT2 (GeneID 10555),0.99,0.99,1
ACBD4 (GeneID 79777),0.89,1,1.12
SPO11 (GeneID 23626),1.13,0.77,0.68
PIK3IP1 (GeneID 113791),1,0.72,0.72
HGH1 (GeneID 51236),0.94,0.66,0.7
HEATR6 (GeneID 63897),1.14,1.12,0.98
LXN (GeneID 56925),0.79,0.66,0.84
FANCI (GeneID 55215),1.11,0.78,0.7
DUSP26 (GeneID 78986),1.19,0.96,0.81
INPP5J (GeneID 27124),1.68,0.99,0.59
GATA2 (GeneID 2624),0.88,0.44,0.5
AKT1 (GeneID 207),0.84,0.67,0.8
KIAA2012 (GeneID 100652824),1.24,1.12,0.9
REXO2 (GeneID 25996),1.15,0.97,0.84
MYO9A (GeneID 4649),0.99,0.7,0.71
PRKCH (GeneID 5583),0.74,0.55,0.74
NAALAD2 (GeneID 10003),1.25,0.9,0.72
INCENP (GeneID 3619),1.39,0.64,0.46
